PubChem BioAssay AID2685 (National Center for Advancing Translational Sciences (NCATS), 2010)
The list shows a part of the results. The main result of the screen is listed elsewhere. These columns were measured beside it and carry no call. Compounds called inactive in the main read-out are mostly missing here. The note in brackets gives the kind of curve behind each potency; many fits are weak.

Assay: qHTS Assay for Lipid Storage Modulators in Drosophila S3 Cells;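 on cell number change: cells counted by Cell Tracker Red CMTPX staining in the red channel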
Conditions: BODIPY lipid droplet fluorescence, 18-24 h; for cell number change: measured here: cell count max response, cells fed with added oleic acid
Outline: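 Drosophila S3 cells got compounds at several concentrations plus oleic acid (400 uM solution). Laser-scanning cytometry with 488 nm excitation read lipid droplets at 500-530 nm and cells at 575-640 nm. Percent activity was relative to 20 uM Triacsin C.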

[1] = measured here: cell number channel AC50, cells fed with added oleic acid
[2] = measured here: lipid fluorescence (Fed channel) AC50, cells fed with added oleic acid

| Compound | cell number change [%] | AC50 [1] | AC50 [2] |
| --- | --- | --- | --- |
| CSCCC(NS(=O)(=O)c1ccc(C)cc1)C(=O)N1CCN(S(=O)(=O)c2ccc(F)cc2)CC1 (stereo not given) | -25 | 0.82 µM [falling, full curve, poor fit] | 13 µM [falling, partial curve] |
| COC(=O)C1=C(C)OC(N)=C(C#N)C1c1ccc(OC)c(CSc2ccccn2)c1 (stereo not given) | – | 2.91 µM [rising, single point] | 0.92 µM [rising, partial curve, poor fit] |
| CCOC(=O)c1sc(C)c(C(N)=O)c1NC1=NCCCCC1 | -2.52 | – | – |
| Cc1ccc(C)c(N2CCN(C(=O)c3ccc(CS(=O)(=O)c4ccccc4C)o3)CC2)c1 | 67.8 | 2.31 µM [rising, full curve] | 3.26 µM [rising, partial curve] |
| CCC1CCc2sc(C(=O)OCC(=O)N(CCOC)c3c(N)n(Cc4ccccc4)c(=O)[nH]c3=O)cc2C1 (stereo not given) | – | – | 0.00651 µM [falling, full curve, poor fit] |
| O=C(NC(C1CC1)C1CC1)C1CCC(=O)N(CCCN2CCCC2=O)C1 (stereo not given) | 10.3 | – | – |
| C=C(C)COc1ccc(-c2n[nH]c(C)c2Oc2ccccc2OC)c(O)c1 | -95.1 | 18.4 µM [falling, single point] | 29.1 µM [falling, single point] |
| Cc1ccc(-c2cc(C(=O)Nc3nn[nH]n3)c3ccccc3n2)cc1 | -9.24 | – | 0.291 µM [rising, full curve, poor fit] |
| CCOC(=O)N1CCN(C(=O)COc2ccc3oc4c(c3c2)CCCC4)CC1 | 40.2 | 4.61 µM [rising, partial curve] | – |
| CC1(C)OC(=O)C(=CNCC(O)c2ccccc2)C(=O)O1 (stereo not given) | 105 | 29.1 µM [rising, single point] | – |
| O=C(O)c1cccc(CN2C(=O)S/C(=C/c3ccccc3[N+](=O)[O-])C2=O)c1 | -2.67 | 0.116 µM [falling, full curve, poor fit] | 2.06 µM [falling, partial curve] |
| N#Cc1ccc(COC(=O)CN2C(=O)NC3(CCCC3)C2=O)cc1 | -29 | 0.731 µM [falling, full curve, poor fit] | – |
| N#CCSc1nnc(-c2c[nH]c3ccccc23)o1 | 1.62 | – | 6.51 µM [rising, single point] |
| COc1ccccc1/C=C\C(=O)NCC(=O)N/N=C/c1cccc(OC)c1O | 21.5 | – | – |
| Cc1cccc(C)c1OCc1cc(C(=O)N2CCN(c3ccccn3)CC2)no1 | 7.37 | 0.206 µM [rising, full curve, poor fit] | 6.51 µM [rising, partial curve, poor fit] |
| CCc1cc2cc(C(=O)Nc3ccc(C)cc3)sc2s1 | -37.3 | 11.6 µM [falling, partial curve] | 13 µM [falling, partial curve] |
| CCN(CC)CCNC(=O)c1ccc(NC(=O)Cc2ccsc2)cc1 | 23.2 | – | 29.1 µM [rising, single point] |
| Cc1ccc(-n2c(CNc3ccc(F)cc3)nnc2SCC(N)=O)cc1 | -28.7 | – | 0.0461 µM [falling, full curve] |
| COC(=O)c1sccc1NC(=O)c1ccccc1F | 8.62 | – | 0.92 µM [rising, full curve] |
| COc1ccc(CC(=O)NCc2nnc(SCC(=O)Nc3ccc(OC)cc3)n2C)cc1 | 5.49 | – | – |
| CN1CCN(S(=O)(=O)c2ccc(NN)nc2)CC1 | -32.3 | 0.731 µM [falling, partial curve, poor fit] | 0.731 µM [falling, partial curve] |
| COc1cccc(C(=O)Oc2ccc3ccc(O)cc3c2)c1 | -32.8 | 32.6 µM [falling, single point] | 29.1 µM [falling, single point] |
| NS(=O)(=O)c1ccc(CCNC(=O)C2CCCN(S(=O)(=O)c3cccnc3)C2)cc1 (stereo not given) | 1.1 | 4.11 µM [falling, single point] | 0.184 µM [falling, full curve, poor fit] |
| Cc1ccccc1CC(=O)N1CCN(C(=O)c2ccco2)CC1 | -3.04 | – | 29.1 µM [rising, single point] |
| COc1ccc(-n2ncc3c(N4CCN(Cc5ccccc5)CC4)ncnc32)cc1 | -4.63 | – | – |
| COc1cc(C2CC(=O)Oc3c(C(CCN4CCCC(C)C4)c4ccc(N(C)C)cc4)c(OC)cc(OC)c32)cc(OC)c1OC (stereo not given) | 15.7 | – | 20.6 µM [rising, single point] |
| CCOC(=O)N1CCC(N(CCOC)C(=O)Nc2ccc(Cl)cc2)CC1 | -19.9 | – | 1.84 µM [rising, partial curve] |
| CCOc1ccc(C(=O)NCCC2=CCCCC2)cc1OCC | -17 | – | 2.06 µM [falling, partial curve] |

| Compound | cell number change [%] | AC50 [1] | AC50 [2] |
| --- | --- | --- | --- |
| NC1=NC2(CCCCC2)N(c2cccc(Cl)c2)C(N)=N1 | -64.6 | 29.1 µM [falling, single point] | 29.1 µM [falling, single point] |
| Cc1cccc(C)c1NC(=O)Nc1ccc(S(N)(=O)=O)cc1 | 13.7 | – | 18.4 µM [falling, single point] |
| Cc1c[n+]([O-])ccc1Oc1ccc([N+](=O)[O-])cc1 | 7.43 | – | 29.1 µM [rising, single point] |
| N#CC1=C(N)NC(SCC(=O)Nc2ccccc2)=C(C#N)C12CCCCC2 | -40.2 | 18.4 µM [falling, partial curve] | 16.4 µM [falling, single point] |
| Cc1ccsc1/C=N/NC(=O)C1CC(=O)N(c2ccccc2)C1 (stereo not given) | -1.81 | – | 0.92 µM [falling, partial curve] |
| Cc1csc2nc(CSc3nc4ccccc4o3)c(Br)n12 | -15.9 | – | 1.16 µM [rising, full curve, poor fit] |
| Cc1cc(Nc2ccccc2)n(-c2nc3ccccc3[nH]2)n1 | -49.5 | 16.4 µM [falling, single point] | 2.06 µM [rising, partial curve, poor fit] |
| CS(=O)(=O)NCc1nnc(SCC(=O)NC2CCCCC2)n1-c1ccc(F)cc1 | 1.25 | – | 2.31 µM [falling, full curve] |
| C[C@@H](NC(=O)c1nc[nH]c1C(=O)N1CCc2ccccc2C1)c1ccccc1 | 3.56 | – | 0.651 µM [rising, partial curve, poor fit] |
| O=C(COc1ccc2ccccc2c1)N1CCNCC1 | -17.9 | – | 3.66 µM [rising, partial curve, poor fit] |
| O=CN1CCN(C(=O)c2cccc([N+](=O)[O-])c2)CC1 | 28.5 | – | 29.1 µM [rising, single point] |
| CCc1ccc(OCC(=O)NC2CC(C)(C)NC(C)(C)C2)cc1 | 61.1 | 29.1 µM [rising, single point] | 18.4 µM [falling, single point] |
| CCn1cc(/C=N/NC(=O)c2ccc3c(c2)OCO3)c(C)n1 | 41.8 | 11.6 µM [rising, partial curve] | 0.651 µM [falling, single point] |
| COC(=O)c1sccc1NC(=O)c1ccncc1 | -18 | – | 18.4 µM [rising, partial curve, poor fit] |
| COc1ccc(N=C2SC(C(=O)Nc3ccc4c(c3)OCO4)CC(=O)N2C)cc1 (stereo not given) | 34.8 | 9.2 µM [rising, partial curve] | 0.461 µM [rising, full curve] |
| C(/C=C/c1ccco1)=N/N1CCN(c2ccccc2)CC1 | 49.5 | 2.91 µM [rising, full curve] | 6.51 µM [rising, single point] |
| Nn1cnnc1SCC(=O)Nc1ccc(C2CCCCC2)cc1 | 21.8 | 2.06 µM [rising, partial curve] | – |
| O=C(CN1C(=O)C2CC=CCC2C1=O)Nc1ccc(S(=O)(=O)Nc2ncccn2)cc1 (stereo not given) | 13.5 | – | 13 µM [rising, single point] |
| O=C(NCc1cccnc1)C1CC(c2ccccc2Cl)=NO1 (stereo not given) | 29.1 | – | 6.51 µM [falling, single point] |
| COC(=O)c1cn(NC(=O)Cn2nc([N+](=O)[O-])c(Br)c2C)c(=O)c2ccccc12 | -3.55 | – | – |
| CCn1c(SCC(=O)Nc2sc3c(c2C#N)CCCC3)nnc1-c1ccco1 | -80.4 | 29.1 µM [falling, single point] | – |
| O=c1c(Cl)c(NCCO)cnn1-c1cccc(Cl)c1 | – | – | 4.11 µM [falling, full curve] |
| COc1ccc(-n2c3nc4ccccc4nc3c3c(=N)oc(C)nc32)cc1 | 140 | 0.651 µM [rising, single point] | 5.8 µM [rising, single point] |
| Cc1cccc(NC(=O)CNC(=O)c2ccco2)n1 | -2.69 | – | – |
| Clc1ccc(-n2ncc3c(NCc4ccco4)ncnc32)cc1 | -11.9 | 0.00517 µM [falling, full curve, poor fit] | – |
| Cc1ccccc1N=C1NC(=O)CC(c2ccccc2)S1 (stereo not given) | 48 | 8.2 µM [rising, partial curve] | 0.651 µM [rising, single point] |
| CCOC(=O)c1c(C)[nH]c(C)c1C(=O)CSc1nc2ccccc2c(=O)n1-c1ccc(CC)cc1 | 24.9 | 4.11 µM [rising, full curve, poor fit] | 29.1 µM [rising, single point] |

Filtered by structure, the entries above with bromine.

| Compound | cell number change [%] | AC50 [1] | AC50 [2] |
| --- | --- | --- | --- |
| Cc1csc2nc(CSc3nc4ccccc4o3)c(Br)n12 | -15.9 | – | 1.16 µM [rising, full curve, poor fit] |
| COC(=O)c1cn(NC(=O)Cn2nc([N+](=O)[O-])c(Br)c2C)c(=O)c2ccccc12 | -3.55 | – | – |
